According to the supplement of paper PMC7877785:
± gives the uncertainty stated by the source. Many of these values have a large error.

Assay: self-splicing fitness, log relative to wild type (ln ratio); higher = more splicing; Tetrahymena group I intron in knt gene, E. coli kanamycin selection, DiMSum; sequences stand for … in CUCUCU…GGAGGGAAAAGUUAUCAGGCAUGCACCUGGUAGCUAGUCUUUAAACCAAUAGAUUGCAUCGGUUUAAAAGGCAAGACCGUCAAAUUGCGGGAAAGGGGUCAACAGCCGUUCAGUACCAAGUCUCAGGGGAAACUUUGAGAUGGCCUUGCAAAGGGUAUGGUAAUAAGCUGACGGACAUGGUCCUAACCACGCAGCCAAGUCCUAAGUCAACAGAUCUUCUGUUGAUAUGGAUGCAGUUCACAGACUAAAUGUCGGUCGGGGAAGAUGUAUUCUUCUCAUAAGAUAUAGUCGGACCUCUCCUUAAUGGGAGCUAGCGGAUGAAGUGAUGCAACACUGGAGCCGCUGGGAACUAAUUUGUAUGCGAAAGUAUAUUGAUUAGUUUUGGAGUACUCGUGGUCG
Method in brief: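 Library with all eight P1ex-region intron nucleotides randomised, intron inside the knt kanamycin-resistance gene on pET-22b(+), in E. coli BL21(DE3). Cells grew overnight at 37°C or 30°C on LB agar with or without 25 μg/mL kanamycin (plus 100 μg/mL carbenicillin, 50 μM IPTG, 0.2% rhamnose), in six replicate transformations. Pooled colonies were amplicon-sequenced on Illumina HiSeq 2500. DiMSum fitness is the error-weighted combination of wild-type-normalised replicate fold changes, kanamycin versus none.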

| Sequence | self-splicing fitness (ln) (30 °C) | self-splicing fitness (ln) (37 °C) |
| --- | --- | --- |
| CUGCAGCAAUAUUACGUUCC | -3.65 ± 0.55 |  |
| GUUGAGCAAUAUUACGUACA | -1.4 ± 1.2 |  |
| UCAGAGCAAUAUUACGAUUA |  | -2.68 ± 0.64 |
| GCCAAGCAAUAUUACGCCUA | -0.609 ± 0.16 | -0.61 ± 0.18 |
| CUGCAGCAAUAUUACGACCA | -3.11 ± 0.66 | -1.74 ± 0.62 |
| CAGAAGCAAUAUUACGCCGC |  | -2.5 ± 0.63 |
| GUUAAGCAAUAUUACGCGAG | -0.369 ± 0.1 | -0.341 ± 0.14 |
| AUGGAGCAAUAUUACGCUGG | -2.22 ± 0.56 |  |
| AGGCAGCAAUAUUACGCCUU | -5.78 ± 0.58 |  |
| AUGUAGCAAUAUUACGUCAA | -2.9 ± 0.3 | -2.98 ± 0.35 |
| AUCGAGCAAUAUUACGACCC | -2.17 ± 0.61 | -1.2 ± 0.73 |
| CUCCAGCAAUAUUACGCCUC | -2.33 ± 0.64 | -1.83 ± 0.58 |
| CCUGAGCAAUAUUACGAACA | -2.43 ± 0.64 | -1.34 ± 0.61 |
| UCAAAGCAAUAUUACGAACC | -2.8 ± 0.27 | -0.879 ± 0.28 |
| AACCAGCAAUAUUACGGGUG | -1.14 ± 0.046 | -0.409 ± 0.064 |
| GCGUAGCAAUAUUACGCAGA | -3.46 ± 1.1 | -1.79 ± 0.82 |
| UCAGAGCAAUAUUACGCAUC | -3.61 ± 0.73 | -3.33 ± 1 |
| GGUAAGCAAUAUUACGCAUC | -0.177 ± 0.65 | -1.98 ± 1.1 |
| CAUUAGCAAUAUUACGAGUC | -5.39 ± 1 |  |
| CCGAAGCAAUAUUACGCCAC | -3.48 ± 1.1 |  |
| GUAUAGCAAUAUUACGUUAA | -2.13 ± 0.61 | -3.17 ± 0.52 |
| AACGAGCAAUAUUACGGCCC | -3.83 ± 1 | -0.693 ± 1.4 |
| GAUGAGCAAUAUUACGCCGC |  | -2.64 ± 0.76 |

| Sequence | self-splicing fitness (ln) (30 °C) | self-splicing fitness (ln) (37 °C) |
| --- | --- | --- |
| CAGGAGCAAUAUUACGCAAA |  | -2.63 ± 1.1 |
| UCGCAGCAAUAUUACGUACU | -4.03 ± 0.6 |  |
| GAUUAGCAAUAUUACGUCCC | -0.907 ± 0.17 | -0.221 ± 0.17 |
| GGCCAGCAAUAUUACGAGAC | -3.29 ± 0.25 | -2.77 ± 0.28 |
| GCCGAGCAAUAUUACGAGGC | -3.23 ± 0.35 | -2.3 ± 0.37 |
| CCGAAGCAAUAUUACGACGC | -3.57 ± 0.6 | -2.98 ± 0.74 |
| UGGUAGCAAUAUUACGAGAA | -1.65 ± 0.57 |  |
| UAUCAGCAAUAUUACGUUUA | -0.174 ± 0.055 | -0.0219 ± 0.069 |
| GGGAAGCAAUAUUACGCCGG |  | -1.71 ± 0.55 |
| CUAUAGCAAUAUUACGAUAC | -4.66 ± 1 |  |
| GUUAAGCAAUAUUACGCUAC |  | -2.39 ± 1.1 |
| UGCGAGCAAUAUUACGGCGC |  | -2.21 ± 0.79 |
| GAGGAGCAAUAUUACGACUG |  | -1.68 ± 0.56 |
| GGAGAGCAAUAUUACGUACC | -1.09 ± 0.68 |  |
| UAUCAGCAAUAUUACGUUCA | -0.267 ± 0.11 | 0.345 ± 0.15 |
| GUAGAGCAAUAUUACGCAGA | -2.23 ± 0.69 |  |
| GUGCAGCAAUAUUACGCAUC | -4.18 ± 0.72 |  |
| ACGGAGCAAUAUUACGCCUG | -3.41 ± 0.2 | -1.52 ± 0.19 |
| UAAGAGCAAUAUUACGACAC | -5.01 ± 0.72 | -2.77 ± 0.63 |
| AAACAGCAAUAUUACGUCAG | -3.36 ± 0.12 | -2.41 ± 0.12 |
| UCGUAGCAAUAUUACGCUUC |  | -1.79 ± 0.57 |
| UGCUAGCAAUAUUACGGAUC | -4.47 ± 0.72 |  |
| AUCGAGCAAUAUUACGUAGA | -3.09 ± 0.32 | -2.7 ± 0.38 |

| Sequence | self-splicing fitness (ln) (30 °C) | self-splicing fitness (ln) (37 °C) |
| --- | --- | --- |
| AGUGAGCAAUAUUACGCGGC |  | -3.52 ± 0.52 |
| UUAGAGCAAUAUUACGAGAC | -2.5 ± 0.73 | -2.67 ± 1.1 |
| UUUUAGCAAUAUUACGAGUU | -3.04 ± 0.53 |  |
| CAGGAGCAAUAUUACGGCUC | -3.48 ± 1.1 | -2.48 ± 0.54 |
| UUUUAGCAAUAUUACGCAGG | -1.33 ± 0.12 | -1.03 ± 0.16 |
| UACUAGCAAUAUUACGACAA | -0.443 ± 0.12 | -0.256 ± 0.11 |
| GUCGAGCAAUAUUACGGCCC | -2.87 ± 0.75 |  |
| GGAUAGCAAUAUUACGAUGG |  | -2.43 ± 0.54 |
| CAUUAGCAAUAUUACGUGUG | -2.91 ± 0.19 | -3.15 ± 0.19 |
| GCUGAGCAAUAUUACGCCCA | -2.02 ± 1.2 | -1.74 ± 0.6 |
| GCGUAGCAAUAUUACGAGGC | -3.03 ± 0.53 | -1.53 ± 0.39 |
| CGUUAGCAAUAUUACGGCUA |  | -2.77 ± 0.53 |
| UCUCAGCAAUAUUACGCGAC | -3.93 ± 0.52 |  |
| UUGUAGCAAUAUUACGAGGC | -3.07 ± 0.27 | -1.77 ± 0.31 |
| CGCUAGCAAUAUUACGCCAA | -3.66 ± 1 |  |
| GGGGAGCAAUAUUACGGCCC | -1.97 ± 0.51 | -2.48 ± 1.1 |
| ACUAAGCAAUAUUACGCCAU | -3.48 ± 0.61 |  |
| CGGGAGCAAUAUUACGAUAU |  | -3.19 ± 0.6 |
| GUGAAGCAAUAUUACGAAGC | -2.06 ± 0.08 | -1.06 ± 0.11 |
| AAGCAGCAAUAUUACGAGAC | -4.36 ± 0.6 |  |
| CGGGAGCAAUAUUACGCAUC |  | -1.32 ± 0.54 |
| UUCGAGCAAUAUUACGAAAC | -2.58 ± 0.8 |  |
| GUGGAGCAAUAUUACGGUGC | -2.76 ± 0.24 | -1.93 ± 0.25 |

| Sequence | self-splicing fitness (ln) (30 °C) | self-splicing fitness (ln) (37 °C) |
| --- | --- | --- |
| CUCAAGCAAUAUUACGGUCA | -3.19 ± 0.2 | -2.35 ± 0.2 |
| UUCUAGCAAUAUUACGGCCU |  | -0.745 ± 0.76 |
| UGUGAGCAAUAUUACGAGUC |  | -3.54 ± 0.6 |
| AGCGAGCAAUAUUACGCUAU | -4.56 ± 0.51 |  |
| CGAGAGCAAUAUUACGGGUC | -3.77 ± 0.53 |  |
| AAGGAGCAAUAUUACGCAGC | -2.85 ± 0.66 | -1.21 ± 0.53 |
| UAUUAGCAAUAUUACGUGGC | -3.66 ± 0.6 |  |
| UACGAGCAAUAUUACGGGGC | -4.15 ± 0.51 | -3.34 ± 0.3 |
| GGUUAGCAAUAUUACGGAGA | -2.51 ± 0.8 |  |
| CGUUAGCAAUAUUACGCUCC | -1.81 ± 0.68 | -0.304 ± 0.93 |
| CUAUAGCAAUAUUACGGAGC | -2.36 ± 0.82 |  |
| UGUUAGCAAUAUUACGAAUC |  | -2.64 ± 0.76 |
| UUUUAGCAAUAUUACGAAGC | -3.9 ± 1 | -1.93 ± 0.8 |
| CAAGAGCAAUAUUACGUUUU | -3.35 ± 0.16 | -2.29 ± 0.15 |
| CUGCAGCAAUAUUACGCUGA |  | -3.49 ± 0.73 |
| UCUGAGCAAUAUUACGUCCU |  | -2.15 ± 0.51 |
| AAUCAGCAAUAUUACGUGCA | -0.181 ± 0.067 | 0.221 ± 0.084 |
| UAGCAGCAAUAUUACGGCUC | -0.698 ± 0.094 | -0.839 ± 0.12 |
| CCGGAGCAAUAUUACGGAUU | -4.33 ± 0.51 |  |
| UCGGAGCAAUAUUACGCCGG | -0.831 ± 0.51 | -0.182 ± 0.73 |
| GGCAAGCAAUAUUACGGCAC | -0.671 ± 0.071 | 0.369 ± 0.12 |
| AACAAGCAAUAUUACGGAGC | -4.22 ± 0.3 | -3.65 ± 0.36 |
| CGGCAGCAAUAUUACGAGAU | -1.99 ± 0.19 | -2.81 ± 0.27 |

5 entries from above, reformatted:
Sequence,self-splicing fitness (ln) (30 °C),self-splicing fitness (ln) (37 °C)
UGUGAGCAAUAUUACGAGUC,,-3.54 ± 0.6
CAAGAGCAAUAUUACGUUUU,-3.35 ± 0.16,-2.29 ± 0.15
CUGCAGCAAUAUUACGCUGA,,-3.49 ± 0.73
CCGGAGCAAUAUUACGGAUU,-4.33 ± 0.51,
GGCAAGCAAUAUUACGGCAC,-0.671 ± 0.071,0.369 ± 0.12

(list continues)

| Sequence | self-splicing fitness (ln) (30 °C) | self-splicing fitness (ln) (37 °C) |
| --- | --- | --- |
| GGGGAGCAAUAUUACGCCUA | -0.849 ± 0.53 | 0.118 ± 0.61 |
| UAACAGCAAUAUUACGUUUA | -0.893 ± 0.063 | -0.563 ± 0.071 |
| CUCUAGCAAUAUUACGGCAC |  | -3.48 ± 0.6 |
| AACGAGCAAUAUUACGGUAC | -4.66 ± 0.51 |  |
| UAUGAGCAAUAUUACGAAAU |  | -3.51 ± 0.59 |
| UCGGAGCAAUAUUACGGGGC | -4.13 ± 0.74 | -2.08 ± 0.79 |
| CUAUAGCAAUAUUACGUAGC | -4.05 ± 0.31 | -3.11 ± 0.43 |
| ACAUAGCAAUAUUACGAAGU | -2.67 ± 0.21 | -2.85 ± 0.23 |
| AGCGAGCAAUAUUACGCGGC | -3.48 ± 1.1 | -2.26 ± 0.77 |
| GGAGAGCAAUAUUACGCUCC | -4.49 ± 1 |  |
| UUUUAGCAAUAUUACGUUCC | -0.317 ± 0.73 | -0.84 ± 0.59 |
| AUUAAGCAAUAUUACGUCAC | -2.82 ± 0.55 |  |
| AAGUAGCAAUAUUACGCUAG | -1.57 ± 0.17 | -1.04 ± 0.2 |
| ACUUAGCAAUAUUACGGCAG | -1.6 ± 0.092 | -0.759 ± 0.12 |
| GGAGAGCAAUAUUACGUCAC | -1.32 ± 1.4 | -1.78 ± 1.2 |
| CUCAAGCAAUAUUACGACUU |  | -3.32 ± 0.52 |
| CUGUAGCAAUAUUACGGCCC | -3.89 ± 0.52 |  |
| UUUGAGCAAUAUUACGCUUU | -3.19 ± 0.58 |  |
| GAGGAGCAAUAUUACGCACG | -3.96 ± 0.76 |  |
| CAUCAGCAAUAUUACGCUUC | -2.2 ± 0.18 | -0.251 ± 0.12 |
| GGGGAGCAAUAUUACGCUUU |  | -2.73 ± 0.54 |
| GGCAAGCAAUAUUACGCCUG | -3.22 ± 0.64 |  |
